Laboratory results published in paper PMC4131480.
These are yes or no findings as the source states them, for the method shown. In cells and extracts the contact can be indirect. Some binding calls cover weakened binding; strength is not graded here.

By UniProt entry, the sequences of proteins in these tests, tags left out.
UniProt O35433: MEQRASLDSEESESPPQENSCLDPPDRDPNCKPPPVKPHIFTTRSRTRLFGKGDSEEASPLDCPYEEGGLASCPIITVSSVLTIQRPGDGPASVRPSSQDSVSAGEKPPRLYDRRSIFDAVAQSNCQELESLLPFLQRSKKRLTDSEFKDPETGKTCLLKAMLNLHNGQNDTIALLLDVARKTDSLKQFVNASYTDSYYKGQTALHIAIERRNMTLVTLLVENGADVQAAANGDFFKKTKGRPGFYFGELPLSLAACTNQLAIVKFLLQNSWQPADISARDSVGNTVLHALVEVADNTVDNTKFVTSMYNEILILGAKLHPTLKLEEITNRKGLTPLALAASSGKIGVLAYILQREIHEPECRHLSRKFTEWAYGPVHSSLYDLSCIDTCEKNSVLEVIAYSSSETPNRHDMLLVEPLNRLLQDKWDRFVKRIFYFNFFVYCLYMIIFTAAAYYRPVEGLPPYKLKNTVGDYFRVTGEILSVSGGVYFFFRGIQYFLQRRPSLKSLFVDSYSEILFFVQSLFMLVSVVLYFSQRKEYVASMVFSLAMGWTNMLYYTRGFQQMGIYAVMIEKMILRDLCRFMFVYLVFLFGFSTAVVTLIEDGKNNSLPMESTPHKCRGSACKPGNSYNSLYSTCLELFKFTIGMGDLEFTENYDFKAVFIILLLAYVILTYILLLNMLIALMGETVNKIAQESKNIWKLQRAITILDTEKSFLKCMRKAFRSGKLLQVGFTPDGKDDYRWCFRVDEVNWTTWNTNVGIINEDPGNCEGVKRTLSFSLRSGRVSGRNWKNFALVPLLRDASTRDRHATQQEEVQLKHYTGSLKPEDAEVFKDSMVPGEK
UniProt P33533: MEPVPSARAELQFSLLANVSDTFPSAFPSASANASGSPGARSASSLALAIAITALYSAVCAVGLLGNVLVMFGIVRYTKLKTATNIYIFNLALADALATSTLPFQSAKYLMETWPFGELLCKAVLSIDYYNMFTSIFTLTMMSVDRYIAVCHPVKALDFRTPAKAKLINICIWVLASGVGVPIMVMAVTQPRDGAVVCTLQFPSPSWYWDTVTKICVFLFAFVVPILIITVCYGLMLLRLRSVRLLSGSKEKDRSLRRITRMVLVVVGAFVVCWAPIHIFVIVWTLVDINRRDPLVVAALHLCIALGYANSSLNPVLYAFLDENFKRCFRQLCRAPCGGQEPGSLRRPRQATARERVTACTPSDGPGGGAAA
UniProt P29067: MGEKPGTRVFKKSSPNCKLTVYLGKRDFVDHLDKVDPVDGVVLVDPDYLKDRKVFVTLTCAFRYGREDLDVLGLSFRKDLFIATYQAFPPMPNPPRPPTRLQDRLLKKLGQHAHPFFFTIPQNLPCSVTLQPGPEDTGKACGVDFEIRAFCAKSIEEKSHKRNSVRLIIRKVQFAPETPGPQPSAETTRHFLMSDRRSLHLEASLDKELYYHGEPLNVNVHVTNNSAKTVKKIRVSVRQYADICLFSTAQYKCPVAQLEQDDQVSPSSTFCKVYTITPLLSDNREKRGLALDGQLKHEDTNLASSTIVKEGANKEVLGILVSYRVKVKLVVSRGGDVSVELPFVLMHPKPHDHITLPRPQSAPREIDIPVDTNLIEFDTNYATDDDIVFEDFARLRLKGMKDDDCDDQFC

What was measured:
[1] = target: transient receptor potential vanilloid type 1 (rat (endogenous in trigeminal ganglion neurons)) (UniProt O35433); assay: co-IP; plasma membranes of cultured rat TG neurons pretreated with SNC80 (1 μM), ARM390 (1 μM) or vehicle (0.1% DMSO) for 30 min; IP for DOPr or TRPV1, Western blot for β-arrestin2
[2] = target: delta opioid receptor (rat (endogenous in trigeminal ganglion neurons)) (UniProt P33533); assay: as above

- binding [1]: binds
- binding [2]: binds
Substance: β-arrestin2 (from UniProt P29067 1-410)
